No constants are given. Whether binding was seen depends on the method and setting. Binding seen in cells or lysates may run through a third protein. For part of these data: Binding calls can cover weak binding; strength is not graded here.
How the values were obtained:
Experiment in all cases: co-IP; anti-HA magnetic beads overnight at 4°C on lysates (50 mM Tris, 150 mM NaCl, 0.2% Triton X-100, pH 7.5) of primary MEFs or HFFs infected for 24 h with RH ROP1-HA, PRU ROP1-HA or PRU 202200-HA; Western blot with anti-C1QBP
[1] = target: HA-tagged rhoptry protein TGME49_202200 (PRU 202200-HA) (Toxoplasma gondii (PRU strain))
[2] = target: ROP1-HA of the T. gondii PRU strain (PRU ROP1-HA) (Toxoplasma gondii (PRU strain))
[3] = target: ROP1-HA of the T. gondii RH strain (RH ROP1-HA) (Toxoplasma gondii (RH strain))

B1: Complement Component 1q Binding Protein (C1QBP), mouse (protein, UniProt O35658 71-278)
chain: LHTEGDKAFVEFLTDEIKEEKKIQKHKSLPKMSGDWELEVNGTEAKLLRKVAGEKITVTFNINNSIPPTFDGEEEPSQGQKAEEQEPERTSTPNFVVEVTKTDGKKTLVLDCHYPEDEIGHEDEAESDIFSIKEVSFQATGDSEWRDTNYTLNTDSLDWALYDHLMDFLADRGVDNTFADELVELSTALEHQEYITFLEDLKSFVKNQ
B1 was tested, and the binding [1] was “no binding”, the binding [2] was “binds” and the binding [3] was “binds”.
